Measured values reported in patent US20230095569A1.
Results are given in words; binding and its absence hold for the method and conditions named. Some binding calls cover weakened binding; strength is not graded here.

Protein sequences, listed by entry. Tags and fused reporters are not part of them. Lines headed by an entry give the natural chain unless they say otherwise; changes in a name come on top.
UniProt P56856: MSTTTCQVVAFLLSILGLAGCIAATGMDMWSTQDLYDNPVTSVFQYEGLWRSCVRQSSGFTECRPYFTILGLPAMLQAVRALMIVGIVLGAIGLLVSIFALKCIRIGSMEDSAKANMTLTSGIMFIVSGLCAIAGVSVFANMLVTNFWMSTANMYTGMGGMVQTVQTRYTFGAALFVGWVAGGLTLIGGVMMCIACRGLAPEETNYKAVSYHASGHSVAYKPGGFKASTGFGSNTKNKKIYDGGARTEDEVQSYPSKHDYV

Target: human Claudin18.2 (CLDN18.2) (human) (UniProt P56856)
Assay: FACS on CHOK1-18.2 cells

Row | Binder | binding
1 | Ab32 (antibody, V domains shown) VH: QVQLKESGPGLVAPSQSLSITCTVSGFSLTSHGVHWVRQPPGKGLEWLGVIWAGGSINFNSALMSRLSISKDNSKNQVFLKMNSLQSDDTAMYYCARDYYYGIGLDYWGQGTTLTVS VL: DIVMTQSPSSLSVSAGEKVTMSCKSSQSLLNSGNQKNYLAWYQQKPGQPPKLLIYGASTRESGVPDRFTGSGSGTDFTLTISSVQAEDLAVYYCQNDYYYPFTFGSGTKLEIK | binds
2 | Ab28 (antibody, V domains shown) VH: QVQLKESGPGLVAPSQSLSITCTVSGFSLTSHGVHWVRQPPGKGLEWLGVIWAGGSINFNSALMSRLSISKDNSKNQVFLKMNSLQSDDTAMYYCARDYYYGIGLDYWGQGTTLTVS VL: DIVMTQSPSSLSVSAGEKVTMSCKSSQSLLNSGNQKNYLAWYQQKPGQPPKLLIYGASTRESGVPDRFTGSGSGTDFTLTISSVQAEDLAVYYCQNDYYYPFTFGSGTKLEIK | binds

Second part, the binder after the results:

Row | binding | Binder
3 | binds | Ab08 (antibody, V domains shown) VH: QVQLQQPGAELVKPGASVKLSCKASGYTFTSYLLHWVKQRPGQGLEWIGMIHPNGGSTNYNEKFKTKATLTVDKSSSTAYMQLSSLTSEDSAVYYCAPVYFGNSFAYWGQGTLVTVSA VL: DIVMTQSPSSLTVTAGEKVTMSCKSSQSLLNSGNQKNYLTWYQQKPGQPPKLLIYWASTRESGVPDRFTGSGSGTDFTLTISSVQAEDLAVYYCQNDYYYPFTFGSGTKLEKK
4 | binds | Ab14 (antibody, V domains shown) VH: QVQLQQPGAELVKPGASVKLSCKASGYTFTSYLLHWVKQRPGQGLEWIGMIHPNGGSTNYNEKFKTKATLTVDKSSSTAYMQLSSLTSEDSAVYYCAPVYFGNSFAYWGQGTLVTVSA VL: DIVMTQSPSSLTVTAGEKVTMSCKSSQSLLNSGNQKNYLTWYQQKPGQPPKLLIYWASTRESGVPDRFTGSGSGTDFTLTISSVQAEDLAVYYCQNDYYYPFTFGSGTKLEKK
